The data set addresses AtMyb77 (MYB77) (Arabidopsis thaliana) (UniProt Q9SN12). Nature of the data set: EMSA. The conditions noted are these: ethylene-responsive element specificity control; same buffer; purified recombinant protein; protein details: His tag (pET28, E. coli BL21(DE3), Ni-NTA); label: 32P end label. In general terms: In EMSA bound probe runs differently from free probe, usually more slowly.

Sequences of proteins named here, by UniProt entry; tags and fusion partners are left off. A line that says so, or that is headed by a name, gives the form on record, which may keep a tag or linker.
UniProt Q9SN12, other isoform, or with tags, fused parts or gaps: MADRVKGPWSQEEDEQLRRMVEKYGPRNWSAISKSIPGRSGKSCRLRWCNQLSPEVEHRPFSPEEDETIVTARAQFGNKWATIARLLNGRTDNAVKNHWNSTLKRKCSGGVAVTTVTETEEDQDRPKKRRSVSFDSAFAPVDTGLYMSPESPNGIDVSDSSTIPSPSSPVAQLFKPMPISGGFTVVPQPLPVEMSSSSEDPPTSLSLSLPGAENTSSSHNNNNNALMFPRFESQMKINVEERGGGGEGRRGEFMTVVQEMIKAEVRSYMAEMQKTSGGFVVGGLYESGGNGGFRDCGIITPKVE

Construct, isoform or probe ends are uncertain for at least one entry. Negatives hold for the conditions tested.

Regarding “ATAAAGAGCCGCCACTAAAATAAGCTT (double strand) [GCC box]”, the binding result is “no binding”.

Source of the values: patent publication US20080196124.
